{"source": "patent US20140314670", "about": "(published 2014)", "experiment": "general procedure: Fmoc solid-phase peptide synthesis; H-L-Thr(t-Bu)-ol-2-chlorotrityl resin; HOBt/HBTU with NMM; HATU for unnatural amino acids and DOTA", "conditions": "whole synthesis, RP-HPLC, Kinetex 2.6 um C18 column, cyclic, sequence written open", "data": [{"substance": "D-Phe-Abu(γ-N3)-L-Tyr-D-Trp-L-Lys(Dde)-L-Thr-L-amino-5-pentanoic-acid-L-Thr(ol)", "values": [{"measurement": "final HPLC purity", "value": ">95", "unit": "%"}]}]}
